PubChem BioAssay AID652243, Drosophila RNAi Screening Center | 2013
In all, the deposit lists about 24,000 reagents; shown is an unselected part of those with a known target gene and a result. Of all reagents, 246 (1%) got an active call. 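Plates not normalised; calls are printed but the firefly/Renilla ratio behind them is not deposited; fold cut for lowering reported inconsistently.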 Raw values vary from plate to plate and are shown uncorrected. Reagent sequences are not shown. The record does not give: the amount of reagent.

Test: 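Fly genes required for human androgen receptor driven transcription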 (primary screen)
Cell system: Drosophila S2R+ cells
Reagents: long dsRNA against Drosophila genes
Timing: 72 h (48 h, then 24 h hormone)
Conditions: synthetic androgen R1881 at 10 nM for 24 h
Measurement: 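Per-well raw luminescence of the androgen-driven firefly reporter and of the Renilla control, two replicates each, without normalisation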
Direction: firefly reporter light: higher = more light from androgen-responsive reporter; Renilla control light: higher = more constitutive control signal (cell number, transfection)
Rule for the call: 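Across duplicate plates, a knock-down whose log firefly/Renilla ratio shifted a set fold down or up from the GFP/LacZ control mean was a hit; the downward cut appears as both 1.5 and 3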
Calls: active = hit: reporter lowered or raised; inactive = no hit

With CG15432 [DRSC00447], what was measured?
firefly reporter light, replicate 1: 49103; firefly reporter light, replicate 2: 36767; Renilla control light, replicate 1: 6.43e5; Renilla control light, replicate 2: 4.04e5; activity call: inactive

How did the screen score CG15432 [DRSC23618]?
firefly reporter light, replicate 1: 7.11e5; firefly reporter light, replicate 2: 5.96e5; Renilla control light, replicate 1: 7.19e5; Renilla control light, replicate 2: 5.45e5; activity call: inactive

For spin [DRSC07176], what does the deposit list?
firefly reporter light, replicate 1: 2.70e5; firefly reporter light, replicate 2: 2.87e5; Renilla control light, replicate 1: 3.43e6; Renilla control light, replicate 2: 2.89e6; activity call: inactive

Which result is listed for spin [DRSC22271]?
firefly reporter light, replicate 1: 7.82e5; firefly reporter light, replicate 2: 8.81e5; Renilla control light, replicate 1: 1.83e6; Renilla control light, replicate 2: 1.77e6; activity call: inactive

With trbd [DRSC16494], what does the deposit list?
firefly reporter light, replicate 1: 36754; firefly reporter light, replicate 2: 53425; Renilla control light, replicate 1: 2.51e5; Renilla control light, replicate 2: 3.32e5; activity call: inactive

What is on record for trbd [DRSC27999]?
firefly reporter light, replicate 1: 6.21e5; firefly reporter light, replicate 2: 5.45e5; Renilla control light, replicate 1: 1.74e6; Renilla control light, replicate 2: 1.23e6; activity call: inactive

Quoted from above (2 entries):
CG15432 [DRSC00447]: firefly reporter light, replicate 1 = 49103; firefly reporter light, replicate 2 = 36767; Renilla control light, replicate 1 = 6.43e5; Renilla control light, replicate 2 = 4.04e5; activity call = inactive
CG15432 [DRSC23618]: firefly reporter light, replicate 1 = 7.11e5; firefly reporter light, replicate 2 = 5.96e5; Renilla control light, replicate 1 = 7.19e5; Renilla control light, replicate 2 = 5.45e5; activity call = inactive

The listing continues.
How did the screen score RpS25 [DRSC16837]?
firefly reporter light, replicate 1: 1.63e5; firefly reporter light, replicate 2: 1.95e5; Renilla control light, replicate 1: 2.79e6; Renilla control light, replicate 2: 3.06e6; activity call: inactive

With RpS25 [DRSC29990], what was measured?
firefly reporter light, replicate 1: 8.25e5; firefly reporter light, replicate 2: 5.79e5; Renilla control light, replicate 1: 1.11e6; Renilla control light, replicate 2: 1.17e6; activity call: inactive

How did the screen score Pgant6 [DRSC08552]?
firefly reporter light, replicate 1: 1.10e6; firefly reporter light, replicate 2: 1.19e6; Renilla control light, replicate 1: 2.34e6; Renilla control light, replicate 2: 2.45e6; activity call: inactive

With Pgant6 [DRSC26927], what does the deposit list?
firefly reporter light, replicate 1: 4.04e5; firefly reporter light, replicate 2: 3.09e5; Renilla control light, replicate 1: 5.83e5; Renilla control light, replicate 2: 3.19e5; activity call: inactive

How did the screen score CG7634 [DRSC11843]?
firefly reporter light, replicate 1: 3.31e5; firefly reporter light, replicate 2: 2.43e5; Renilla control light, replicate 1: 2.97e6; Renilla control light, replicate 2: 2.58e6; activity call: inactive

Which result is listed for P5CS [DRSC11831]?
firefly reporter light, replicate 1: 72113; firefly reporter light, replicate 2: 95053; Renilla control light, replicate 1: 7.80e5; Renilla control light, replicate 2: 8.16e5; activity call: inactive

With P5CS [DRSC11832], how do the results read?
firefly reporter light, replicate 1: 2.35e5; firefly reporter light, replicate 2: 1.55e5; Renilla control light, replicate 1: 1.93e6; Renilla control light, replicate 2: 2.05e6; activity call: inactive
